Measurements reported in PubChem BioAssay AID1259254 (NCATS, 2017)

- Screen: 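Genome-wide screen for genes that prevent DNA re-replication in cancer cells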 (primary screen)
- Cells: human HCT116 colorectal cancer cells
- Reagent: single siRNA against human genes
- Timing: 3 days
- Detection: 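Imaged Hoechst DNA stain sorts each cell into a cycle phase by DNA amount; per plate, G2 fraction set to 0% for non-targeting and 100% for GMNN siRNA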
- Reading the numbers: G2 robust z-score: higher = more G2 cells, more excess DNA replication
- Call rule: 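An siRNA counts as active if its G2 robust z-score lies at least 5 MADs above the screen median; here such calls match roughly 38% of GMNN control or more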
In all, the deposit lists about 59,000 reagents; below is a random part of them. About 1,550 of all reagents (2.6%) count as active. 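G2 share is only a proxy for re-replication; each gene was hit by three separate siRNAs, and active genes were retested.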 Further read-outs or replicates are left out here. Not stated in the record: the amount of reagent.

What did the screen give for POU3F2 [SID160714679]?
G2 robust z-score: 0.598; activity call: inactive

For POU3F2 [SID160714680], what does the deposit list?
G2 robust z-score: 0.596; activity call: inactive

With POU3F2 [SID160731454], what does the deposit list?
G2 robust z-score: 0.608; activity call: inactive

What did the screen give for SPDYE21 [SID160725475]?
G2 robust z-score: -0.548; activity call: inactive

How did the screen score SPDYE21 [SID160768190]?
G2 robust z-score: -1.17; activity call: inactive

How did the screen score SPDYE21 [SID160768191]?
G2 robust z-score: -0.345; activity call: inactive

For ORMDL3 [SID160735224], what was measured?
G2 robust z-score: -0.889; activity call: inactive

What did the screen give for ORMDL3 [SID160754619]?
G2 robust z-score: 2.62; activity call: inactive

What did the screen give for ORMDL3 [SID160754620]?
G2 robust z-score: -0.48; activity call: inactive

With GCSHP9 [SID160725470], how do the results read?
G2 robust z-score: -0.393; activity call: inactive

For GCSHP9 [SID160768170], what does the deposit list?
G2 robust z-score: 0.129; activity call: inactive

Which result is listed for GCSHP9 [SID160768172]?
G2 robust z-score: -0.706; activity call: inactive

With VAMP5 [SID160729228], how do the results read?
G2 robust z-score: 2.09; activity call: inactive

Which result is listed for VAMP5 [SID160729231]?
G2 robust z-score: -0.496; activity call: inactive

For VAMP5 [SID160732295], what was measured?
G2 robust z-score: -0.699; activity call: inactive

What is on record for MAF1 [SID160751924]?
G2 robust z-score: 1.56; activity call: inactive

How did the screen score MAF1 [SID160751925]?
G2 robust z-score: 0.0728; activity call: inactive

For MAF1 [SID160751926], what was measured?
G2 robust z-score: 0.0799; activity call: inactive

With SLC25A25 [SID160754981], how do the results read?
G2 robust z-score: -0.14; activity call: inactive

With SLC25A25 [SID160754982], what was measured?
G2 robust z-score: 0.92; activity call: inactive

What did the screen give for SLC25A25 [SID160754983]?
G2 robust z-score: 0.189; activity call: inactive

For OR52N5 [SID160766367], how do the results read?
G2 robust z-score: -0.205; activity call: inactive

With OR52N5 [SID160766368], how do the results read?
G2 robust z-score: -0.603; activity call: inactive

Which result is listed for OR52N5 [SID160766369]?
G2 robust z-score: -0.48; activity call: inactive

Sorted by “G2 robust z-score” (ascending): 4 of the entries above
SLC25A25 [SID160754981] — G2 robust z-score = -0.14; activity call = inactive
MAF1 [SID160751925] — G2 robust z-score = 0.0728; activity call = inactive
MAF1 [SID160751926] — G2 robust z-score = 0.0799; activity call = inactive
SLC25A25 [SID160754982] — G2 robust z-score = 0.92; activity call = inactive
